From article PMC11977219
No constants are given. Whether binding was seen depends on the method and setting. Binding seen in cells or lysates may run through a third protein. Some binding calls cover weakened binding; strength is not graded here. For part of these data: Tags and fused reporters may be left off the sequences shown. Blank lines part the entries; values can stand above or below the binder they belong to.

Amino acid sequences for entries named in this document (tags omitted). A change or cut given only in a name is not applied to a line headed by its entry.
UniProt P42224: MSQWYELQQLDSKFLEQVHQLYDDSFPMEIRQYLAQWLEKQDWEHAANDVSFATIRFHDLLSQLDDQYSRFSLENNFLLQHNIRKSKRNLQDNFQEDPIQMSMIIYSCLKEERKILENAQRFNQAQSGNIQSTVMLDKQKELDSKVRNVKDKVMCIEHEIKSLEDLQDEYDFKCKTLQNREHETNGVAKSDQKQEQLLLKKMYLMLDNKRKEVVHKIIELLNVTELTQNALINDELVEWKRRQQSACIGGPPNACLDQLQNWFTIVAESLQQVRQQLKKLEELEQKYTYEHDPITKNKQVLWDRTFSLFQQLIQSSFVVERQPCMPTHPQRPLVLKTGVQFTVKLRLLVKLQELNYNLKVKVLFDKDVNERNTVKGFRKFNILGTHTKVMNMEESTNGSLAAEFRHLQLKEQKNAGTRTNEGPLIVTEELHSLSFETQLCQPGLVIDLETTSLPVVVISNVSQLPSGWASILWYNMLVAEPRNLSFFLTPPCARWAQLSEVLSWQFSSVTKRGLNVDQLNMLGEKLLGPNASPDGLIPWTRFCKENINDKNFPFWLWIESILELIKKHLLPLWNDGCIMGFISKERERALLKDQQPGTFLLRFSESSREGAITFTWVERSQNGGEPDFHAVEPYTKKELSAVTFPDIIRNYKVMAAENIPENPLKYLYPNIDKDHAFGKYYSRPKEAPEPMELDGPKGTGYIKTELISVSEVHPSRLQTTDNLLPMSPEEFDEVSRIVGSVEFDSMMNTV

Tests used:
[1] = biological target: Flag-STAT1 (HL-1 cells) (human) (UniProt P42224); assay: co-IP; HL-1 cells transfected with Flag-STAT1 and Myc-Viperin, then treated with or without VS-IP1 (200 μM) for 12 h; also Supplementary Fig. S7a (cells not shown)
[2] = biological target: STAT1 (as tested against the Viperin deletion mutants) (UniProt P42224); assay: co-IP; tagged wild-type proteins and deletion mutants of Viperin or STAT1 in transfected cells (Supplementary Figs. S3f, S6a, S6b; cells and baits not shown)
[3] = biological target: Myc-His-tagged STAT1-WT (human) (UniProt P42224); assay: as above

binding [1]: binds
B1: Myc-Viperin (HL-1 cells) (protein, UniProt Q8WXG1 1-361)
chain: MWVLTPAAFAGKLLSVFRQPLSSLWRSLVPLFCWLRATFWLLATKRRKQQLVLRGPDETKEEEEDPPLPTTPTSVNYHFTRQCNYKCGFCFHTAKTSFVLPLEEAKRGLLLLKEAGMEKINFSGGEPFLQDRGEYLGKLVRFCKVELRLPSVSIVSNGSLIRERWFQNYGEYLDILAISCDSFDEEVNVLIGRGQGKKNHVENLQKLRRWCRDYRVAFKINSVINRFNVEEDMTEQIKALNPVRWKVFQCLLIEGENCGEDALREAERFVIGDEEFERFLERHKEVSCLVPESNQKMKDSYLILDEYMRFLNCRKGRKDPSKSILDVGVEEAIKFSGFDEKMFLKRGGKYIWSKADLKLDW

binding [2]: binds
B2: Myc-tagged human Viperin (WT) (protein, UniProt Q8WXG1 1-361)
chain: B1 chain

binding [3]: binds
B3: Viperin (as tested against the STAT1 deletion mutants) (protein, UniProt Q8WXG1 1-361)
chain: B1 chain
